Data as given in PubChem BioAssay AID1671195 (Yale University, 2021)
Test: 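Genes whose knockdown alters LDL uptake in liver cancer cells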 (primary screen). Cells: human Huh7 hepatoma cells. Reagents: siRNA pool against human genes, 18 nM. Duration: about 2 to 2.5 days of knockdown, then 8 h LDL uptake. Conditions: DiI-labelled LDL at 30 µg/ml for 8 h, in lipoprotein-deficient serum medium. Detection: 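Per-cell DiI-LDL intensity by automated imaging; well means scaled to the plate median and given as a robust z-score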. Reading the numbers: robust z-score: higher = more LDL uptake after knockdown. Rule for the call: 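a gene counts as active if at least two replicate z-scores exceed ±2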.
In all, the deposit lists about 22,000 reagents; below is a random part of them. About 1,510 of them (6.9%) were called active. 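Active includes knockdowns raising or lowering LDL uptake; positive z-scores mean more uptake, negative mean less.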 Entries without a mark were called inactive.

With knock-down of PPRC1 (PPARG related coactivator 1) [SID442898974], the screen gave robust z-score, replicate 1 = -0.59; robust z-score, replicate 2 = -0.356; robust z-score, replicate 3 = -0.738.
After knock-down of THBS3 (thrombospondin 3) [SID442900429], the record shows robust z-score, replicate 1 = -0.193; robust z-score, replicate 2 = -0.531; robust z-score, replicate 3 = -1.55.
DUSP18 (dual specificity phosphatase 18) [SID442891823] showed robust z-score, replicate 1 = 0.441; robust z-score, replicate 2 = 0.167; robust z-score, replicate 3 = 0.114.
Depletion of MRPL37 (mitochondrial ribosomal protein L37) [SID442884764] gave: robust z-score, replicate 1 = -1.64; robust z-score, replicate 2 = -1.23; robust z-score, replicate 3 = -3.1.
Against MYOZ2 (myozenin 2) [SID442903561], the values are robust z-score, replicate 1 = -1.48; robust z-score, replicate 2 = -1.64; robust z-score, replicate 3 = -0.858.
Against LINC03106 (long independently transcribed non-coding RNA 3106) [SID442887360], the entry reads robust z-score, replicate 1 = 0.758; robust z-score, replicate 2 = 0.977; robust z-score, replicate 3 = 1.05.
For OMA1 (OMA1 zinc metallopeptidase) [SID442891090], the values are robust z-score, replicate 1 = 0.212; robust z-score, replicate 2 = -0.353; robust z-score, replicate 3 = 1.14.
For PPP2CB (protein phosphatase 2 catalytic subunit beta) [SID442898362], the entry reads robust z-score, replicate 1 = -0.0213; robust z-score, replicate 2 = -1.35; robust z-score, replicate 3 = -0.0954.
Against CD200R1L (CD200 receptor 1 like) [SID442886508], the entry reads robust z-score, replicate 1 = 1.25; robust z-score, replicate 2 = 1.13; robust z-score, replicate 3 = 1.05.
Depletion of UNC5D (unc-5 netrin receptor D) [SID442885546] gave: robust z-score, replicate 1 = 1.24; robust z-score, replicate 2 = 1.18; robust z-score, replicate 3 = 1.99.
After knock-down of FAM222B (family with sequence similarity 222 member B) [SID442900547] the results were robust z-score, replicate 1 = -0.153; robust z-score, replicate 2 = -1.05; robust z-score, replicate 3 = -1.12.
After knock-down of RPL17P25 (ribosomal protein L17 pseudogene 25) [SID442902353], the record shows robust z-score, replicate 1 = -0.78; robust z-score, replicate 2 = -1.24; robust z-score, replicate 3 = -1.15.
For LOC441861 (retired record) [SID442904034], the entry reads robust z-score, replicate 1 = -1.48; robust z-score, replicate 2 = -1.35; robust z-score, replicate 3 = -1.57.
Against LOC441646 (retired record) [SID442891865], the values are robust z-score, replicate 1 = -0.0408; robust z-score, replicate 2 = 0.24; robust z-score, replicate 3 = 0.51.
With knock-down of LOC389654 (retired record) [SID442885890], the record shows robust z-score, replicate 1 = 0.742; robust z-score, replicate 2 = 1.64; robust z-score, replicate 3 = 1.61.
With knock-down of CLEC10A (C-type lectin domain containing 10A) [SID442890296] the results were robust z-score, replicate 1 = 0.299; robust z-score, replicate 2 = 1.63; robust z-score, replicate 3 = -0.623.
ZNF208 (zinc finger protein 208) [SID442900975] scored robust z-score, replicate 1 = -1.21; robust z-score, replicate 2 = -0.291; robust z-score, replicate 3 = -0.996.
After knock-down of C18orf32 (chromosome 18 open reading frame 32) [SID442887532], the record shows robust z-score, replicate 1 = 0.737; robust z-score, replicate 2 = 0.717; robust z-score, replicate 3 = 1.23.
Knock-down of EPS15L1 (epidermal growth factor receptor pathway substrate 15 like 1) [SID442889233] came out at: robust z-score, replicate 1 = 0.311; robust z-score, replicate 2 = 0.474; robust z-score, replicate 3 = 0.988.
CES1P1 (carboxylesterase 1 pseudogene 1) [SID442885669] gave robust z-score, replicate 1 = 0.482; robust z-score, replicate 2 = 2.27; robust z-score, replicate 3 = 1.49.
Against LOC441138 (retired record) [SID442885299], the values are robust z-score, replicate 1 = 1.98; robust z-score, replicate 2 = 1.88; robust z-score, replicate 3 = 0.863.
Silencing of WDPCP (WD repeat containing planar cell polarity effector) [SID442884244] gave: robust z-score, replicate 1 = 1.94 (active); robust z-score, replicate 2 = 2.12; robust z-score, replicate 3 = -1.68.
BECN2 (beclin 2) [SID442896498] scored robust z-score, replicate 1 = -0.198; robust z-score, replicate 2 = 0.0274; robust z-score, replicate 3 = -0.669.
LOC153959 (retired record) [SID442891213] scored robust z-score, replicate 1 = 0.622; robust z-score, replicate 2 = -0.0583; robust z-score, replicate 3 = 0.385.
Silencing of INPP5B (inositol polyphosphate-5-phosphatase B) [SID442898559] gave: robust z-score, replicate 1 = -0.808; robust z-score, replicate 2 = -0.498; robust z-score, replicate 3 = -0.232.
CIDEA (cell death inducing DFFA like effector a) [SID442885472] scored robust z-score, replicate 1 = 1.83; robust z-score, replicate 2 = 1.82; robust z-score, replicate 3 = 0.85.
Knock-down of LOC391817 (retired record) [SID442904750] came out at: robust z-score, replicate 1 = -1.84; robust z-score, replicate 2 = -2.01; robust z-score, replicate 3 = -1.75.
With knock-down of TRPC4 [SID442886265], the record shows robust z-score, replicate 1 = 1.43; robust z-score, replicate 2 = 1.12; robust z-score, replicate 3 = 1.08.
With knock-down of LOC400301 (retired record) [SID442885766], the record shows robust z-score, replicate 1 = 0.287; robust z-score, replicate 2 = 2.09; robust z-score, replicate 3 = 1.76.
Knock-down of RPL6P2 (ribosomal protein L6 pseudogene 2) [SID442887527] resulted in: robust z-score, replicate 1 = 0.518; robust z-score, replicate 2 = 0.838; robust z-score, replicate 3 = 1.33.

Hits, of those listed so far:
WDPCP (WD repeat containing planar cell polarity effector) [SID442884244]: robust z-score, replicate 1 = 1.94 (active); robust z-score, replicate 2 = 2.12; robust z-score, replicate 3 = -1.68
